These are yes or no findings as the source states them, for the method shown. Binding seen in cells or lysates may run through a third protein. Some results given as binding are weak or reduced against the parent protein; the word gives no strength.
What was measured:
[1] = molecular target: EGFP-fused Vif (HIV-1) (UniProt P12504); assay: co-IP; HEK293T cotransfected with A3G, GFP-Vif and rising amounts of MDM2; immunoprecipitated with anti-GFP mAb, blotted with the indicated Abs
[2] = molecular target: HA-tagged MDM2 mutant containing amino acids 168–411 (UniProt Q00987); assay: co-IP; HEK293T cotransfected with HA-tagged MDM2 Wt or deletion mutants and pNL-A1, MG132 for 6 hrs; immunoprecipitated with anti-HA mAb, blotted with anti-Vif mAb
[3] = molecular target: HA-tagged MDM2 wild type (UniProt Q00987); assay: co-IP; HEK293T cotransfected with pCMV4/HA-MDM2 and pNL-A1, MG132 for 6 hrs; lysis in 25 mM HEPES pH7.4/150 mM NaCl/1 mM MgCl2/0.5% TritonX-100/10% Glycerol; immunoprecipitated with anti-MDM2 mAb and Protein A-Sepharose at 4°C, washed with RIPA buffer, blotted with anti-Vif mAb
[4] = molecular target: GST-Vif (HIV-1) (UniProt P12504); assay: pull-down; GST pull-down with GST-Vif or GST; data not shown

Amino acid sequences for entries named in this document (tags omitted). A change or cut given only in a name is not applied to a line headed by its entry. Chains listed by the source or under a name are the forms on record and can include a tag or linker. Residues count along the entry.
UniProt P12504: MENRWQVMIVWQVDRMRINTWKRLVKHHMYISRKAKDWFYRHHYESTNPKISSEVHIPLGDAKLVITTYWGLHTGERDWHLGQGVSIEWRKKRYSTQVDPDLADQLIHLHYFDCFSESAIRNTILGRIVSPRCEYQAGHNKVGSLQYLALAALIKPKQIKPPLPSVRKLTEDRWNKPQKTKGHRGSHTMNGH
UniProt Q00987: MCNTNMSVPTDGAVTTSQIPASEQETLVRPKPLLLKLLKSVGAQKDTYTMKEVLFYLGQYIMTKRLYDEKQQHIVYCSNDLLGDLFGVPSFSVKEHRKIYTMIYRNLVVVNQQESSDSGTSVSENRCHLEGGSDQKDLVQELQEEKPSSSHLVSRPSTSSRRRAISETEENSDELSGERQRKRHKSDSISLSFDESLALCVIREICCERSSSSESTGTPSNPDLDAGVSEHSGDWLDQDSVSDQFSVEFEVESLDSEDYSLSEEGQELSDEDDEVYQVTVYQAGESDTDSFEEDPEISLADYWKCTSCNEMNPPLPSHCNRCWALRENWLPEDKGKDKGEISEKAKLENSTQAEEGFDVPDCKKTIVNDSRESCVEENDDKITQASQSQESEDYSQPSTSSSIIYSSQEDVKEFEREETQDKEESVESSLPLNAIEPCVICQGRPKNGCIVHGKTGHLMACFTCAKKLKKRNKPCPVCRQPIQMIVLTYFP
HA-tagged MDM2 mutant containing amino acids 168–411: residues 168-411 of Q00987

HA-tagged MDM2 wild type (from UniProt Q00987 1-491) (enzyme)
binding [1]: binds

HIV-1 Vif expressed from the subgenomic vector pNL-A1 (from UniProt P12504 1-192)
binding [2]: binds | binding [3]: binds

MDM2 used in the GST pull-down assays (from UniProt Q00987 1-491) (enzyme)
binding [4]: binds
